# Assay results

Source: PubChem BioAssay AID912 (NCATS, 2007).

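Uptake of anthrax lethal toxin into cultured cells, read by FRET (460/530 nm ratio) and reported from the 460 nm channel; the cell line is not named here. Each compound was tested as a concentration series from about 0.0005 to 40 µM. The number is the fitted AC50 of the 460 nm signal alone; lower values mean a more potent effect. A falling signal goes with compounds filed as inhibitors or cytotoxic, a rising one with activators or fluorescent compounds (inferred from the filed classes).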

Values are in nM. Common to all entries: measured here: 460 nm channel. This is a side read-out of the assay, for part of the compounds, not drawn at random. A potency from a partial, single-point or poor curve is only a rough figure. The first word of each remark tells which way the curve ran; it can be opposite to the aim of the assay.

* CNc1ccc(OC(F)F)cc1C(=O)c1ccccc1 | AC50 2512 nM (falling, partial curve)
* Cc1ccc(-c2noc(CSc3nnnn3C3CCCCC3)n2)cc1 | AC50 1585 nM (falling, partial curve)
* CCOC(=O)N1CCOCCOCCN(C(=O)OCC)CCOCC1 | AC50 125.9 nM (falling, full curve, poor fit)
* O=c1c(CCc2ccccc2)nc2cnc(Nc3ccccc3)nc2n1C[C@H]1CCCO1 | AC50 7943 nM (rising, partial curve)
* CC(=O)C(C(C)=O)c1c(Cl)c(O)c(O)c2c(C(=O)c3ccccc3)coc12 | AC50 1995 nM (falling, partial curve, poor fit)
* COc1cc2c(C#N)c(N3CCOCC3)nc(N)c2c(N)n1 | AC50 2512 nM (falling, full curve)
* CCOC(=O)COc1ccc(S(=O)(=O)Nc2ccc3c(c2)OCO3)cc1 | AC50 7943 nM (falling, partial curve)
* O=[N+]([O-])c1ccc2c(c1)c(S(=O)(=O)O)cc1nonc12 | AC50 1000 nM (falling, single point)
* NC(N)=Nc1ccc2[nH]c3c(c2c1)C[C@]1(O)[C@@H]2Cc4ccc(O)c5c4[C@]1(CCN2CC1CC1)[C@@H]3O5 | AC50 12589 nM (falling, single point)
* CN1C(=O)C(Cc2c[nH]c3ccccc23)NC1=S (stereo not shown) | AC50 3.981 nM (falling, full curve, poor fit)
* N#CCC(=O)NCCCOC(=O)Nc1ccc(Cl)c(Cl)c1 | AC50 19952 nM (falling, partial curve)
* Cc1ccc(OCC(=O)Nc2ccc(-c3nnc(-c4ccco4)o3)cc2)cc1 | AC50 15848 nM (rising, partial curve, poor fit)
* CN1CCN(c2ncnc3ccc(-c4ccc5c(c4)OCO5)cc23)CC1 | AC50 19952 nM (falling, partial curve)
* CN(CCO)c1ncnc2nc[nH]c12 | AC50 25118 nM (falling, partial curve)
* O=C(NCCCN1CCCC1=O)c1csc2ccccc12 | AC50 5012 nM (falling, single point)
* Brc1cnc(N2CCCC2)nc1N1CCCCC1 | AC50 31622 nM (falling, partial curve)
* O=C(Nc1ccccc1)NC1(C(=O)N2CCN(C(=O)c3ccco3)CC2)CCCCC1 | AC50 5012 nM (rising, single point)
* CCOC(=O)/C=C1\NC(C)(C)Cc2cc(OC)c(O)cc21 | AC50 12589 nM (falling, single point)
* CC1CCN(S(=O)(=O)c2ccc3ncn(CC(=O)N(C)Cc4ccccc4)c(=O)c3c2)CC1 | AC50 12589 nM (rising, single point)
* Cc1cccc(CS(=O)(=O)Cc2ccc(C(=O)NCCN3CCCCC3C)o2)c1 (stereo not shown) | AC50 5012 nM (falling, single point)
* COC(=O)C(C)Sc1nnc2n(-c3cccc(C)c3)c(=O)c3c4c(sc3n12)CCCC4 (stereo not shown) | AC50 2512 nM (rising, full curve)
* Cc1ccc(-c2csc3n[nH]c(=S)n23)cc1 | AC50 5012 nM (rising, single point)
* COCCn1c(=O)c(-c2ccc(Cl)cc2)nc2cnc(N3CCNCC3)nc21 | AC50 2512 nM (rising, full curve)
* CCN1CCN(C(=O)c2cc3c(=O)n4ccccc4nc3n2Cc2ccccc2)CC1 | AC50 3162 nM (falling, partial curve, poor fit)
* CCn1nnc(NC(=O)c2c(OC)cccc2OC)n1 | AC50 5012 nM (rising, single point)

Some entries from above, unchanged:

{"structure": "O=[N+]([O-])c1ccc2c(c1)c(S(=O)(=O)O)cc1nonc12", "AC50 (nM)": "1000", "remark": "falling, single point"}
{"structure": "CCOC(=O)COc1ccc(S(=O)(=O)Nc2ccc3c(c2)OCO3)cc1", "AC50 (nM)": "7943", "remark": "falling, partial curve"}
{"structure": "CC1CCN(S(=O)(=O)c2ccc3ncn(CC(=O)N(C)Cc4ccccc4)c(=O)c3c2)CC1", "AC50 (nM)": "12589", "remark": "rising, single point"}